For at least one compound, name, drawing or mass did not settle the structure.
Test: Drug loading of mPEG-b-p(HPMAm-Lacn) micelles by HPLC (loaded concentration, encapsulation efficiency, loading capacity)
Assay type: physicochemical
Conditions: polymer 10 mg/mL; for final concentration of drug loaded inside MCs: 1 mL MC solution, HPLC
Protocol: Drug loaded MCs were formed by self-assembly via a solvent evaporation method. Briefly, 10 mg of copolymers […] dissolved in 1 mL of acetone. Various amounts of drugs (0.25, 0.5, 1 and 2 mg) were then added to the copolymer solution and vortexed until fully mixed. […] The next day, the MC solution was centrifuged at 4,000 rpm at 22° C. for 10 min to remove unencapsulated drugs. LE, PA, and DEX were three drugs of interest. 30 mg/mL of drug stock solutions were prepared in DMSO. Unloaded MCs were prepared with the same procedure without the addition of drugs. The amount of loaded drugs (LE, PA and DEX) in the polymeric MCs was determined by using High Performance Liquid Chromatography (HPLC). Taking LE as an example, after centrifugation of the MC solution, the unencapsulated LE pellet was redissolved in 1 mL of ACN. […] LE dissolved in ACN (concentration from 0.1 mg/ml to 1 mg/ml) was used for calibration. The encapsulation efficiency (EE) and loading capacity (LC) were calculated as follows: […]

SMILES: C[C@@H]1C[C@H]2[C@@H]3CCC4=CC(=O)C=C[C@]4(C)[C@@]3(F)[C@@H](O)C[C@]2(C)[C@@]1(O)C(=O)CO [DEX, Dexamethasone]
- encapsulation efficiency (EE) % (applied drug concentration 0.5 mg/mL): 92.5±1.7%
- encapsulation efficiency (EE) % (applied drug concentration 2 mg/mL): 47.8±7.5%
- final concentration of drug loaded inside MCs (initially applied drug 0.25 mg): 235.9 ± 5.0 µg/mL
- final concentration of drug loaded inside MCs (initially applied drug 2 mg): 956.7 ± 150.3 µg/mL

Source: patent US20250195427A1, “ANTI-INFLAMMATORY DRUG-ELUTING COMPOSITIONS AND METHODS” (THE REGENTS OF THE UNIVERSITY OF CALIFORNIA, priority 2022, published 2025)
